{"sequences": {"note": "Protein sequences, listed by entry. Tags and fused reporters are not part of them. Lines headed by an entry give the natural chain unless they say otherwise; changes in a name come on top.", "UniProt O75469": "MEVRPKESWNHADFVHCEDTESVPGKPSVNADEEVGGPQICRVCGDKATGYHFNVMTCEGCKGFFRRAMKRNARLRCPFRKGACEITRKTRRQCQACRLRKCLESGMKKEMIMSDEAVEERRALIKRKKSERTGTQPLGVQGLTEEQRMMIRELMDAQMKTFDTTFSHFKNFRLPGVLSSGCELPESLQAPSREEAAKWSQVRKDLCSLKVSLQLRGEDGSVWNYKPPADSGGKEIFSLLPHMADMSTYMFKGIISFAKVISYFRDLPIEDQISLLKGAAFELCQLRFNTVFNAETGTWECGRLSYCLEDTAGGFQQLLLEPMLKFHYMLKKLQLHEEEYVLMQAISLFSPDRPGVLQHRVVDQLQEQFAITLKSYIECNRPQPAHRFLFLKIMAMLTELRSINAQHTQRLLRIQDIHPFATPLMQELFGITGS", "UniProt P13631, whole entry, looked up": "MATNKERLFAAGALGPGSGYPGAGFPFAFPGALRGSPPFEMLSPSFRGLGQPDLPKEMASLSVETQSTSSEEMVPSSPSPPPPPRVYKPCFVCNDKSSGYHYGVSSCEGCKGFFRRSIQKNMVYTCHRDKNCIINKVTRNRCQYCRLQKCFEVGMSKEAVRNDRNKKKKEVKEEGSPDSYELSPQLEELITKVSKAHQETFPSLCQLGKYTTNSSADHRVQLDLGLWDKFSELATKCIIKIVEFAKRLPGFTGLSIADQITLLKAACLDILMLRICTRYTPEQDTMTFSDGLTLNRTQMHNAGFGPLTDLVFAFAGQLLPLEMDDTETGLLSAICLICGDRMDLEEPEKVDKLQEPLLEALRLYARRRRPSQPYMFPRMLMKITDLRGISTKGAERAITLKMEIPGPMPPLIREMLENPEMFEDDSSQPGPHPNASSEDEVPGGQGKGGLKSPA", "UniProt P19793": "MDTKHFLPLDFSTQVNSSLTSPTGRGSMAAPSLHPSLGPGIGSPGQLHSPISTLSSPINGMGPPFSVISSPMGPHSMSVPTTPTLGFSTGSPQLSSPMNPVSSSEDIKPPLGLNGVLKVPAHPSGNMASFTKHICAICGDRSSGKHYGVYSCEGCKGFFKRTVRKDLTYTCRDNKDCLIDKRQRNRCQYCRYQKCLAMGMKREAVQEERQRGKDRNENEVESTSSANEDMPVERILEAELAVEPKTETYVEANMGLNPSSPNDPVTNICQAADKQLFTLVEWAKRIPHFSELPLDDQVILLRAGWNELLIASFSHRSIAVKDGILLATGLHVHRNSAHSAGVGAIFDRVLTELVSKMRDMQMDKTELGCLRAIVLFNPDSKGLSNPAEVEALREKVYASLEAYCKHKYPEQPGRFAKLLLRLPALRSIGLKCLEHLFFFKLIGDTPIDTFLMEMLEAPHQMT", "UniProt P10827": "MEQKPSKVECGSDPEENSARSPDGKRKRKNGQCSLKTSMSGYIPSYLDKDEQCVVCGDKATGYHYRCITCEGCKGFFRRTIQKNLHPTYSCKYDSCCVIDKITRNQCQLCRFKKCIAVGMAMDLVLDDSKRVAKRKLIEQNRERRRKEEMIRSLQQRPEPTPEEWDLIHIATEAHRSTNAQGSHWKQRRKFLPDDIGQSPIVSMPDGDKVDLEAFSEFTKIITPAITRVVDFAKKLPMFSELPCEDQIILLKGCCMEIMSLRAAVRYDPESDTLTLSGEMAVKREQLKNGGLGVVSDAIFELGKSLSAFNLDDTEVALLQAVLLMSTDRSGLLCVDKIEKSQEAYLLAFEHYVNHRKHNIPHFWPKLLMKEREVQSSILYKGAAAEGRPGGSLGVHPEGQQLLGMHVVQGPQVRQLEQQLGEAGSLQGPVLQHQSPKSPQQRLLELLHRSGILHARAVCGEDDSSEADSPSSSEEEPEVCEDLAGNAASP", "UniProt P11473": "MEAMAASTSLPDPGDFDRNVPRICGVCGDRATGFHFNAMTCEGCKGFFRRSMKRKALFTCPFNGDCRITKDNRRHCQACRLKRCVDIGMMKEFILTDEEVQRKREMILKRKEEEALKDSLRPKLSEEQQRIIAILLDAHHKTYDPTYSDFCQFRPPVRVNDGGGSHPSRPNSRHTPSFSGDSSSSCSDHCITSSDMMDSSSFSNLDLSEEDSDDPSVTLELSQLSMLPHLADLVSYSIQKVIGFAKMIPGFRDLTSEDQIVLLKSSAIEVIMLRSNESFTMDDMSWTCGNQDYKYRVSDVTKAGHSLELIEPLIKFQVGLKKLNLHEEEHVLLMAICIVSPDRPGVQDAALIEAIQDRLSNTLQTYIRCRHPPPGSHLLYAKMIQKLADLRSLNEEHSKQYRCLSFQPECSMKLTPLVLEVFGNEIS", "UniProt Q92753": "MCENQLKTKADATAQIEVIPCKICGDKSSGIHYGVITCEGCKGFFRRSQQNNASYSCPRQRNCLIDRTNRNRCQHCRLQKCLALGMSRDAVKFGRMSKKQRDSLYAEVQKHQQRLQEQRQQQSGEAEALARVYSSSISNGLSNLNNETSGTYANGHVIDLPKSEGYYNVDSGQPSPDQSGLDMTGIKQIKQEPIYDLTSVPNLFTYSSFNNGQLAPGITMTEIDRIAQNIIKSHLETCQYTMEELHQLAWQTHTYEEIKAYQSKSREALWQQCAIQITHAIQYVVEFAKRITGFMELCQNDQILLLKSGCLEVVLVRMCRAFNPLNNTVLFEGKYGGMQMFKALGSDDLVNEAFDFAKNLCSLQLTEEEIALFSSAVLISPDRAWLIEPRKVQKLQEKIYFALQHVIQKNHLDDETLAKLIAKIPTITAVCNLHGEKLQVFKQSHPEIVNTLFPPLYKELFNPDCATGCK", "UniProt P51449": "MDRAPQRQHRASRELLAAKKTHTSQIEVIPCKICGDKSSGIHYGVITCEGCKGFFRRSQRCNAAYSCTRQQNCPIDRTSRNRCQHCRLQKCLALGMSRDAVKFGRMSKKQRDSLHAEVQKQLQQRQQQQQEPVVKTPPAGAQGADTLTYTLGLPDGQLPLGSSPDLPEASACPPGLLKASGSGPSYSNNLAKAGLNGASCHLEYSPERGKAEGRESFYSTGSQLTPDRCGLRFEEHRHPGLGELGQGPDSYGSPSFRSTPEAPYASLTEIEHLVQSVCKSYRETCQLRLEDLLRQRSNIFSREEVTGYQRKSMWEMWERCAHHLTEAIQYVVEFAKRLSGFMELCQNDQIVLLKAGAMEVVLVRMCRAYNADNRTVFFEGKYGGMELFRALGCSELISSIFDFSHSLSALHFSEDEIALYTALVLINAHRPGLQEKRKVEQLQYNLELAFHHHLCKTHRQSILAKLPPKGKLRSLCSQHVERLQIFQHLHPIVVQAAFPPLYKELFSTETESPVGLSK", "UniProt P28702": "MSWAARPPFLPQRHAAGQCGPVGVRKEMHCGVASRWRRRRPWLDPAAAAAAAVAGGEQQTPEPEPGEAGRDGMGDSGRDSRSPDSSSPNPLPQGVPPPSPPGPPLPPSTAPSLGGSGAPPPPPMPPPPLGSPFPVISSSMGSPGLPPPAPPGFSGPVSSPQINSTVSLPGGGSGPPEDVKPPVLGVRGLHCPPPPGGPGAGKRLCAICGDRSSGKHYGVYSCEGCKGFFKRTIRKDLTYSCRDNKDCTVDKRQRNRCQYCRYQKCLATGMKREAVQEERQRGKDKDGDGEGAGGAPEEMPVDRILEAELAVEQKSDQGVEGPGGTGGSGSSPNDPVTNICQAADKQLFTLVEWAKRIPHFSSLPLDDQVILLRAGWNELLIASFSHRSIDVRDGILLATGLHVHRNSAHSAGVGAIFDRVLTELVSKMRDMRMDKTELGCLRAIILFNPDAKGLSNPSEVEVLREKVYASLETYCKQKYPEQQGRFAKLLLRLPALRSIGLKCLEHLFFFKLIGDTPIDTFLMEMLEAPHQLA"}, "source": "PubChem BioAssay (EPA / NIEHS)", "key": {"[1]": {"target": "Nuclear receptor subfamily 1 group I member 2 (Homo sapiens) (UniProt O75469)", "test": "ATG_PXR_TRANS: Attagene TRANS-FACTORIAL HepG2 Assay for human Pregnane X Receptor (PXR) (AID 2283008)", "procedure,_shortened": "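Measures mRNA induction of a GAL4-UAS-driven reporter in human HepG2 cells transiently expressing PXR fused to Gal4, following 24 h treatment. DMSO served as negative control and baseline.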"}, "[2]": {"target": "human Retinoic Acid Receptor gamma (RARg), RARG (gene 5916) (UniProt P13631)", "test": "ATG_RARg_TRANS: Attagene TRANS-FACTORIAL HepG2 Assay for human Retinoic Acid Receptor gamma (RARg) (AID 2283009);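 on AC50: AC50 is for reporter induction above DMSO meaning RARg activation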", "procedure,_shortened": "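HepG2, RARg-GAL4 TRANS system, 24 h exposure; reporter mRNA by RT-PCR + CE fluorescence; increase over DMSO.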"}, "[3]": {"target": "Retinoic acid receptor RXR-alpha (Homo sapiens) (UniProt P19793)", "test": "ATG_RXRa_TRANS: Attagene TRANS-FACTORIAL HepG2 Assay for human Retinoid X Receptor alpha (RXRa) (AID 2283012)", "procedure,_shortened": "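Cells (HepG2) carried transiently transfected GAL4-responsive reporter units. Following a 24 h chemical incubation, reporter mRNA induction was read via RT-PCR fragment analysis; DMSO served as negative control and baseline.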"}, "[4]": {"target": "human Thyroid Receptor alpha (THRa1), THRA (gene 7067) (UniProt P10827)", "test": "ATG_THRa1_TRANS: Attagene TRANS-FACTORIAL HepG2 Assay for human Thyroid Receptor alpha (THRa1) (AID 2283014)", "procedure,_shortened": "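Reporter transcript induction, read by capillary electrophoresis of 6-FAM-labelled RT-PCR products, reflects activity of a transfected THRa1-Gal4 fusion in HepG2 liver cells. Cells were dosed for 24 h; activity was fitted in the positive direction against DMSO.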"}, "[5]": {"target": "human Vitamin D Receptor (VDR), VDR (gene 7421) (UniProt P11473)", "test": "ATG_VDR_TRANS: Attagene TRANS-FACTORIAL HepG2 Assay for human Vitamin D Receptor (VDR) (AID 2283022)", "procedure,_shortened": "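Steps: transfect HepG2 with GAL4-UAS-driven reporter constructs; dose compounds 24 h; isolate RNA, reverse-transcribe, PCR-amplify with 6-FAM-labelled primer extension and HpaI digestion; quantify fragments by capillary electrophoresis relative to DMSO.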"}, "[6]": {"target": "human RAR-related Orphan Receptor beta (RORb), RORB (gene 6096) (UniProt Q92753)", "test": "ATG_RORb_TRANS: Attagene TRANS-FACTORIAL HepG2 Assay for human RAR-related Orphan Receptor beta (RORb) (AID 2283010);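 on AC50: potency for increased reporter mRNA meaning activation of RORb-Gal4 chimera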", "procedure,_shortened": "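In this TRANS-format test, human HepG2 cells express chimeric NR-Gal4 fusion proteins driving GAL4-UAS reporters. After 24 h dosing, reporter transcripts are measured by fluorescent RT-PCR/capillary electrophoresis, with DMSO as negative control.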"}, "[7]": {"target": "human RAR-related Orphan Receptor gamma (RORg), RORC (gene 6097) (UniProt P51449)", "test": "ATG_RORg_TRANS: Attagene TRANS-FACTORIAL HepG2 Assay for human RAR-related Orphan Receptor gamma (RORg) (AID 2283011);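 on AC50: potency for induction of reporter transcripts above DMSO so activators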", "procedure,_shortened": "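First, HepG2 liver cells were transfected with GAL4-UAS-driven reporter constructs and the RORg-Gal4 fusion. Next, they were treated with chemical for 24 h. Finally, reporter mRNA was quantified by RT-PCR and capillary electrophoresis, with upward activity fitted against DMSO.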"}, "[8]": {"target": "human Retinoid X Receptor beta (RXRb), RXRB (gene 6257) (UniProt P28702)", "test": "ATG_RXRb_TRANS: Attagene TRANS-FACTORIAL HepG2 Assay for human Retinoid X Receptor beta (RXRb) (AID 2283013)", "procedure,_shortened": "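Multiplexed TRANS reporter assay in HepG2; 24 h dosing; reporter mRNA by RT-PCR/CE fluorescence; gain-of-signal relative to DMSO.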"}}, "note": "The inconclusive results got no clear call from the source; some entries with a clear call stand among them for comparison. Where the call is inconclusive, the potency comes from a doubtful curve fit. Where a structure was tested more than once in an assay, its records may differ in their call. Calls of active or inactive are those of the source. How the source made its calls: active means hit-call score of the fitted dose curve at least 0.9, where 1 is the maximum; inconclusive means response in the unintended direction; inactive means score below 0.9."}
{"smiles": "CCCCCCCCCCCCCCCC(=O)O", "values": [{"measurement": "AC50", "setting": "[1]", "value": "inconclusive: 100 µM"}, {"measurement": "AC50", "setting": "[2]", "value": "inconclusive: 177 µM"}, {"measurement": "AC50", "setting": "[3]", "value": "inconclusive: 100 µM"}, {"measurement": "AC50", "setting": "[4]", "value": "inconclusive: 173 µM"}, {"measurement": "outcome", "setting": "[5]", "value": "inactive"}]}
{"smiles": "CC(=O)O[C@H]1C[C@@H]2CC[C@@]1(C)C2(C)C", "values": [{"measurement": "outcome", "setting": "[1]", "value": "inactive"}, {"measurement": "AC50", "setting": "[6]", "value": "inconclusive: 100 µM"}, {"measurement": "AC50", "setting": "[7]", "value": "inconclusive: 100 µM"}]}
{"smiles": "CC(C)OB(OC(C)C)OC(C)C", "values": [{"measurement": "outcome", "setting": "[1]", "value": "inactive"}, {"measurement": "outcome", "setting": "[6]", "value": "inactive"}, {"measurement": "outcome", "setting": "[7]", "value": "inactive"}, {"measurement": "AC50", "setting": "[3]", "value": "inconclusive: 0.0824 µM"}, {"measurement": "AC50", "setting": "[8]", "value": "inconclusive: 165 µM"}, {"measurement": "outcome", "setting": "[4]", "value": "inactive"}, {"measurement": "AC50", "setting": "[5]", "value": "inconclusive: 5.39 µM"}]}
{"smiles": "O=C(O)[C@H](O)[C@@H](O)C(=O)O", "values": [{"measurement": "AC50", "setting": "[1]", "value": "inconclusive: 59.8 µM"}, {"measurement": "outcome", "setting": "[6]", "value": "inactive"}, {"measurement": "outcome", "setting": "[7]", "value": "inactive"}, {"measurement": "outcome", "setting": "[8]", "value": "inactive"}]}
{"smiles": "CCCC(C)C(=O)OCC", "note": "(configuration not stated)", "values": [{"measurement": "AC50", "setting": "[1]", "value": "inconclusive: 48.9 µM"}, {"measurement": "outcome", "setting": "[2]", "value": "inactive"}, {"measurement": "AC50", "setting": "[8]", "value": "inconclusive: 100 µM"}, {"measurement": "AC50", "setting": "[4]", "value": "inconclusive: 100 µM"}, {"measurement": "AC50", "setting": "[5]", "value": "inconclusive: 162 µM"}]}
{"smiles": "O=Cc1ccc(Cl)c([N+](=O)[O-])c1", "values": [{"measurement": "AC50", "setting": "[1]", "value": "inconclusive: 100 µM"}, {"measurement": "AC50", "setting": "[6]", "value": "inconclusive: 169 µM"}, {"measurement": "outcome", "setting": "[7]", "value": "inactive"}, {"measurement": "AC50", "setting": "[8]", "value": "inconclusive: 182 µM"}]}
{"smiles": "c1ccc(C[n+]2cccc3ccccc32)cc1", "values": [{"measurement": "outcome", "setting": "[1]", "value": "inactive"}, {"measurement": "AC50", "setting": "[6]", "value": "inconclusive: 100 µM"}, {"measurement": "AC50", "setting": "[7]", "value": "inconclusive: 182 µM"}, {"measurement": "outcome", "setting": "[8]", "value": "inactive"}]}
{"smiles": "C[C@]12CC[C@H]3[C@@H](CCC4=CC(=O)CC[C@@]43C)[C@@H]1CC[C@@H]2C(=O)CO", "values": [{"measurement": "AC50", "setting": "[1]", "value": "active: 2.12 µM"}, {"measurement": "AC50", "setting": "[6]", "value": "inconclusive: 139 µM"}, {"measurement": "AC50", "setting": "[7]", "value": "inconclusive: 100 µM"}, {"measurement": "AC50", "setting": "[8]", "value": "inconclusive: 49.9 µM"}]}
{"smiles": "CCC(=O)OC(C)c1ccccc1", "note": "(configuration not stated)", "values": [{"measurement": "AC50", "setting": "[1]", "value": "inconclusive: 26.1 µM"}, {"measurement": "outcome", "setting": "[6]", "value": "inactive"}, {"measurement": "outcome", "setting": "[7]", "value": "inactive"}, {"measurement": "AC50", "setting": "[3]", "value": "inconclusive: 1.78 µM"}, {"measurement": "AC50", "setting": "[5]", "value": "inconclusive: 3.3 µM"}]}
